Earlier results in patent US8673320B2, “Metal-citrate transporter antigen from Streptomyces coelicolor and uses thereof” (Syracuse University, priority 2008, dated 2014).
At least one structure is not confirmed: it was looked up by name or label, or the drawing left a doubt.

Settings: cited from earlier work

| Structure (SMILES) | Ionic Radius (pm) |
| --- | --- |
| [Ca+2] [Ca^2+] | 99 pm |
| [Mg+2] [Mg^2+] | 66 pm |
